The results in this text go back to publication PMC12203913.

The exact form of at least one protein or probe is not confirmed. Weaker means in comparison with the reference protein, sequence or condition of that experiment.

The data set has as its system UV-DDB (DDB1-DDB2) (Homo sapiens). As to the kind of experiment: EMSA. As to conditions: 50x unlabeled undamaged competitor (200 nM), affinity significantly reduced; 5'-phosphate on strand 1; EMSA: 50 mM Tris-HCl pH 7.5, 100 mM NaCl, 0.1 mg/ml BSA, 1 mM DTT, 23°C, 45 min; recombinant protein; label: 5'-FAM on strand 2. (In general: A gel shift assay detects complexes by their altered migration in electrophoresis.)

For “TGCATGCGGCCGCTCTTCCCATGGTGCGATCGCTCTTCG (double strand) [undamaged 39 bp DNA (λ-I3_Dup / λ-I3_comp_FAM)]”, the binding result is given as “binds more weakly”.
